In this series the target is T1, Zur (Mycobacterium bovis BCG) (UniProt P9WN85).
T1 sequence (looked up): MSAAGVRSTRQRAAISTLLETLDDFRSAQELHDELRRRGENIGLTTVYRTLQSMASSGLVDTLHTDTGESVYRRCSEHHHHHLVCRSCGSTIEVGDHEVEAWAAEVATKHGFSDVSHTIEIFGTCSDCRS
The experiment in a line: EMSA. The following applies: 20 mM Tris-HCl pH 8.0, 1 mM DTT, 50 mM KCl, 5 mM MgCl2, 0.05 mg/mL BSA, 10% glycerol, recombinant protein, residues 1-130, probe letters rebuilt from the primers and the genome.

These results are taken from article PMC10580935.

Protein sequences can lack the tags named with them.

Regarding “ACTGGCTAAATCCGTTGCCGCTGCCGCGATAACCTCTGGCGCCGCAATCACAAACGACATCTGACACCTCCCAATACGCATGACCGCTCTGTCATGCCGACCCGGGGAACGTCACCAGCAAAAATCGGCGGGCTACAGAATAACTCCGGCCCGGGAAAGGGATTTGGTATTTCCCAAAATATCTCCCACATTTATGCGGTCGGCGCGTCGGCCGACGGGAGCTGGCAGCACCCGTGGGCCGGCGCCGAGCGTTCGCTGGTGTCCGGCTGGGACTTGCATTGCGGCGCGCCGTGGTGTGGAATAGTGGTAATGAAAATCATGTTCATCAGTCCTCTGTGGTGTTTACGGCT (double strand) [esx-3p1]”, the binding result is given as “binds”. Also, the binding result (no added zinc) is recorded as “binds”.
